Measured values from publication PMC5897330.
These are yes or no findings as the source states them, for the method shown. Some binding calls cover weakened binding; strength is not graded here.

Chains of the proteins cited; added tags and fusions are not shown.
UniProt P04792: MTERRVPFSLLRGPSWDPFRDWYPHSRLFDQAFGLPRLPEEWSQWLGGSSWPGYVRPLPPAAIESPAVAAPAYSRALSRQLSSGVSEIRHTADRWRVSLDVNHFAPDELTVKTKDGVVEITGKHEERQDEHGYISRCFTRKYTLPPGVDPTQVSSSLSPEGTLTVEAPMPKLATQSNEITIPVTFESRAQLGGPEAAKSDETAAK

Target: Recombinant HSP27 (heat shock protein 27), biotinylated (UniProt P04792)
Experiment: BLI; Octet Red; biotinylated HSP27 immobilised at 10 ug/ml on streptavidin biosensors; analytes at 125 nM in PBS; association 600 s, dissociation 600 s; 26 °C; both purified

binding: binds
B1: Crystallin alpha B (protein, UniProt P02511 1-175)
chain: MDIAIHHPWIRRPFFPFHSPSRLFDQFFGEHLLESDLFPTSTSLSPFYLRPPSFLRAPSWFDTGLSEMRLEKDRFSVNLDVKHFSPEELKVKVLGDVIEVHGKHEERQDEHGFISREFHRKYRIPADVDPLTITSSLSSDGVLTVNGPRKQVSGPERTIPITREEKPAVTAAPKK
